The target in this assay is human FSHβ (human) (UniProt P01225). The experiment in a line: ELISA. (In an ELISA, binding on a coated surface is turned into a signal by an enzyme label.)

The chains behind the UniProt entries cited, without tags or fusion partners. Residues count along the entry.
UniProt P01225, residues 19-129: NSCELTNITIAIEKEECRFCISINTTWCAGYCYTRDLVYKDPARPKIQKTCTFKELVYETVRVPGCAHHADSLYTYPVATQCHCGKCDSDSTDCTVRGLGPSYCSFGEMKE

Results are given in words; binding and its absence hold for the method and conditions named. Some results given as binding are weak or reduced against the parent protein; the word gives no strength.

Drawing on patent US20190241651A1, this text covers binding for 1 molecule.

B1: monoclonal anti-FSH antibody Hf2 (antibody, V domains shown)
VH: DVHLQESGPGLVKPSQSLSLTCTVTGFSITSDYAWNWIRQFPGNKLEWMGSIFSSGSINYNPSLKSRISITRDTSRNQFFLQLNSVTTADAGTYYCARGGTGTDYWGQGTTLTVSS
VL: DIQMTQTTSSLSASLGDRVTISCRASQDISNYLSWYQQKPDGTIKLLIYYTSRLHSGVSSRFSGSGSGTDYSLTISNLEQEDFATYFCQQGHTLPPTFGGGTKLEIK
Take B1: the binding entry is reported as “binds”.
